Consider one substance from PMC8921229.

Chains of the proteins cited; added tags and fusions are not shown.
UniProt P57764: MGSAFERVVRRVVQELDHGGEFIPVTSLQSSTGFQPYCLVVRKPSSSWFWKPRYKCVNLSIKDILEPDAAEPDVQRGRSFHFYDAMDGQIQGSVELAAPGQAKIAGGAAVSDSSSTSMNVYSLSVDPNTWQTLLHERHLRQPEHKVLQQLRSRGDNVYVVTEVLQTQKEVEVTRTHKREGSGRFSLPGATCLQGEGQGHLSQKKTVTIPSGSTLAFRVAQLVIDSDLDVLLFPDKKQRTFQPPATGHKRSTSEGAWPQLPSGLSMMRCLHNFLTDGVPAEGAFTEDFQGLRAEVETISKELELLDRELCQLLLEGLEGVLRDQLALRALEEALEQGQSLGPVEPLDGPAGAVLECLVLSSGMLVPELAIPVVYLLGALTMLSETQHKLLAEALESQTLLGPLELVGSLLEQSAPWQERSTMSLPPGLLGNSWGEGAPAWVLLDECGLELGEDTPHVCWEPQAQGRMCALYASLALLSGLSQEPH
UniProt P05198: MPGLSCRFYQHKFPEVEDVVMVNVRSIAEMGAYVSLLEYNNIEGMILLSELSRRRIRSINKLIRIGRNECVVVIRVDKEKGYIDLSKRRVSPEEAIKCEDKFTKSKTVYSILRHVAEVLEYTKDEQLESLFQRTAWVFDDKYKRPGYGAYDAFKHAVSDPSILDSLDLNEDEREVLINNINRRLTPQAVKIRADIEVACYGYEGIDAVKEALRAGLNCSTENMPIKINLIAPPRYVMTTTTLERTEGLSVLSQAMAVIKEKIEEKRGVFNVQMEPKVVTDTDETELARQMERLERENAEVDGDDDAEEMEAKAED

Results are given in words; binding and its absence hold for the method and conditions named. Binding seen in cells or lysates may run through a third protein. These calls come from enrichment with a bait or labelling near it, and not all partners need be listed.

The assay has as its target SFB-tagged GSDMD (human) (UniProt P57764). Description: affinity purification with mass spectrometry; co-IP of SFB-tagged GSDMD from a cell line with stable overexpression; proteins digested on the beads with trypsin; mass spectrometry.

For the substance eIF2α (from UniProt P05198 1-315), the binding result is “binds”.
